Results deposited as PubChem BioAssay AID504764 (Drosophila RNAi Screening Center, 2011)
The deposit covers about 22,000 reagents; shown is a random part of those that have a named target and a result. Over the whole deposit, 403 (1.9%) got an active call. 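Unnormalised raw counts per well; ratio z-scores behind the hit calls and whether each hit raises or lowers signal are not deposited.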 A plus sign joins genes that one reagent is predicted to hit. Not stated in the record: the amount of reagent.

Aim: 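Genome-wide screen for regulators of Notch-driven gene expression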 (primary screen)
Cell system: Drosophila Kc167 cells
Reagent: long dsRNA against Drosophila genes
Duration: about 5 days (4 days dsRNA, then 24 h after transfection)
Treatment: transfection of constitutively active membrane-tethered Notch lacking the extracellular domain, read 24 h later
Measurement: 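Light from a Notch-responsive E(spl)m3 luciferase reporter under active Notch, with control-promoter and no-Notch reporter wells to normalise; raw counts from paired wells a and b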
Direction: induced reporter light, run 1, well a and induced reporter light, run 1, well b: higher = more light from the Notch target reporter with active Notch; control promoter light, run 1, well a and control promoter light, run 1, well b: higher = more light from the viral control promoter (cell number, transfection, viability); uninduced reporter light, run 1, well a: higher = more light from the Notch target reporter without active Notch
Active means: 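Wells with low control signal or poorly matching duplicates excluded; duplicates averaged; per source plate, z beyond ±2 for induced/control log2 ratio or beyond ±1.8 for induced/uninduced marks a hit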
Calls: active = modifier hit (raised or lowered Notch signal); inactive = not a hit

| Target gene | dsRNA | induced reporter light, run 1, well a | induced reporter light, run 1, well b | control promoter light, run 1, well a | control promoter light, run 1, well b | uninduced reporter light, run 1, well a | outcome |
| --- | --- | --- | --- | --- | --- | --- | --- |
| mbf1 | DRSC11365 | 1.70e5 | 1.76e5 | 1.20e5 | 99320 | 10455 | inactive |
| CG11475 | DRSC04113 | 2.23e5 | 2.05e5 | 1.52e5 | 2.05e5 | 18192 | inactive |
| nsl1 | DRSC15625 | 1.77e5 | 2.77e5 | 3.39e5 | 4.25e5 | 16450 | inactive |
| RpS29 + snoRNA:Psi18S-1275 | DRSC16433 | 1.68e5 | 1.45e5 | 1.66e5 | 1.30e5 | 14090 | inactive |
| ca | DRSC15305 | 1.84e5 | 1.98e5 | 2.54e5 | 2.75e5 | 13960 | inactive |
| ca | DRSC15306 | 1.84e5 | 1.96e5 | 2.27e5 | 2.42e5 | 16875 | inactive |
| ca | DRSC16314 | 1.47e5 | 1.36e5 | 2.09e5 | 2.22e5 | 15455 | inactive |
| CG10183 | DRSC14203 | 2.02e5 | 2.05e5 | 2.25e5 | 1.76e5 | 14040 | inactive |
| CG14062 | DRSC14725 | 1.18e5 | 1.14e5 | 1.48e5 | 1.34e5 | 10550 | inactive |
| Asph | DRSC06783 | 1.18e5 | 1.29e5 | 2.40e5 | 2.06e5 | 8392 | inactive |
| Asph | DRSC07171 | 1.32e5 | 1.15e5 | 2.60e5 | 3.03e5 | 11642 | inactive |
| Rdh | DRSC08063 | 4830 | 4635 | 5775 | 5090 | 3685 | inactive |
| Rdh | DRSC08434 | 10930 | 13475 | 10265 | 11060 | 3032 | inactive |
| Argp | DRSC16510 | 2.42e5 | 2.60e5 | 2.54e5 | 2.38e5 | 19915 | inactive |
| beat-Va | DRSC14192 | 1.11e5 | 1.31e5 | 1.02e5 | 1.12e5 | 7425 | inactive |
| CG13474 | DRSC10018 | 2.00e5 | 2.20e5 | 2.81e5 | 2.11e5 | 6770 | inactive |
| nonA | DRSC20357 | 56825 | 48055 | 54625 | 53460 | 10220 | inactive |
| Tsp3A | DRSC18656 | 1.45e5 | 1.32e5 | 2.08e5 | 2.22e5 | 9035 | inactive |
| Zmynd8 | DRSC15310 | 1.56e5 | 1.72e5 | 2.30e5 | 2.16e5 | 12940 | inactive |
| DCP2 | DRSC10597 | 1.15e5 | 1.01e5 | 41225 | 45045 | 7830 | inactive |
| CG13121 (retired record) | DRSC02217 | 1.08e5 | 1.60e5 | 68090 | 91390 | 16410 | inactive |
| Ccdc58 | DRSC10218 | 1.44e5 | 1.72e5 | 67575 | 99530 | 10690 | inactive |
| CG31913 | DRSC00892 | 89685 | 84950 | 1.31e5 | 1.36e5 | 7790 | inactive |
| CG2116 | DRSC18206 | 2.24e5 | 2.81e5 | 3.56e5 | 3.46e5 | 13610 | inactive |
| CG11983 | DRSC14458 | 40195 | 56995 | 44230 | 45480 | 3085 | inactive |
| g | DRSC20335 | 54470 | 64420 | 43835 | 71035 | 4535 | inactive |
| Kpc1 | DRSC16107 | 1.65e5 | 1.86e5 | 1.20e5 | 1.26e5 | 10280 | inactive |
| Yp2 | DRSC18732 | 1.61e5 | 1.63e5 | 1.91e5 | 1.77e5 | 12445 | inactive |
| Wnt10 | DRSC00990 | 1.57e5 | 1.53e5 | 1.70e5 | 1.56e5 | 9685 | inactive |
| Wnt10 | DRSC02797 | 58705 | 54805 | 71010 | 52430 | 3815 | inactive |
| Ppr-Y | DRSC20892 | 2.26e5 | 2.16e5 | 3.02e5 | 3.17e5 | 14855 | inactive |
| CG10513 | DRSC14248 | 2.08e5 | 2.40e5 | 2.42e5 | 2.51e5 | 12910 | inactive |
| Pvr | DRSC03080 | 1.22e5 | 1.11e5 | 44480 | 52125 | 10405 | active |
| CG11334 | DRSC14066 | 74025 | 93130 | 1.08e5 | 1.06e5 | 6875 | inactive |
| CG11334 | DRSC14302 | 1.70e5 | 1.54e5 | 2.40e5 | 2.52e5 | 10105 | inactive |
| EDTP | DRSC07409 | 95950 | 89040 | 1.04e5 | 84720 | 8628 | inactive |
| rasp | DRSC08191 | 1.06e5 | 1.73e5 | 2.37e5 | 2.05e5 | 7628 | inactive |
| ItgaPS5 | DRSC04501 | 1.34e5 | 1.44e5 | 1.16e5 | 1.44e5 | 10070 | inactive |
| Fs | DRSC06258 | 74740 | 91520 | 1.82e5 | 2.64e5 | 9425 | active |
| Fs | DRSC06259 | 59990 | 67745 | 76885 | 86230 | 8400 | inactive |
| eIF6 | DRSC04674 | 2.08e5 | 1.78e5 | 1.82e5 | 1.58e5 | 16420 | inactive |
| CG13748 | DRSC06419 | 1.75e5 | 2.10e5 | 2.08e5 | 2.30e5 | 17395 | inactive |
| CG15824 | DRSC00473 | 1.20e5 | 96500 | 96265 | 56475 | 8760 | inactive |
| Vps60 | DRSC10610 | 1.46e5 | 1.34e5 | 1.51e5 | 1.44e5 | 7035 | inactive |
| CG5323 | DRSC06929 | 65775 | 57295 | 53470 | 56765 | 5405 | inactive |
| Tusp | DRSC15838 | 1.54e5 | 1.51e5 | 1.85e5 | 1.78e5 | 12555 | inactive |
| S6k | DRSC11276 | 2.42e5 | 2.79e5 | 3.06e5 | 2.92e5 | 11510 | inactive |
| cwo | DRSC17072 | 91615 | 81260 | 81225 | 63090 | 5550 | inactive |
| Sh3beta | DRSC11001 | 1.12e5 | 87950 | 68365 | 46140 | 10745 | inactive |
| Br140 | DRSC06755 | 1.30e5 | 1.17e5 | 1.02e5 | 1.27e5 | 10280 | inactive |
| CG8032 | DRSC16365 | 65790 | 76220 | 54070 | 51365 | 5175 | inactive |
| mRpL45 | DRSC16146 | 1.06e5 | 90835 | 1.20e5 | 1.27e5 | 7595 | inactive |
| TwdlQ | DRSC14745 | 33595 | 20890 | 26075 | 22392 | 5875 | inactive |
| RecQ4 | DRSC11265 | 1.71e5 | 1.44e5 | 1.99e5 | 1.19e5 | 18288 | inactive |
| Eip75B | DRSC11161 | 20860 | 17865 | 16750 | 15520 | 8775 | inactive |
| bdl | DRSC00271 | 89815 | 95735 | 88955 | 83770 | 5982 | inactive |
| Gcat | DRSC09719 | 1.42e5 | 1.02e5 | 1.78e5 | 1.06e5 | 7215 | inactive |
| dgo | DRSC06134 | 1.82e5 | 1.55e5 | 1.62e5 | 1.37e5 | 13192 | inactive |
| Ance-2 | DRSC02539 | 1.32e5 | 1.35e5 | 1.59e5 | 1.88e5 | 10592 | inactive |
| Bx | DRSC19350 | 45665 | 44545 | 28175 | 24005 | 20060 | inactive |
| CG8204 | DRSC07106 | 1.16e5 | 1.02e5 | 1.39e5 | 1.28e5 | 10270 | inactive |
| CG2267 | DRSC15435 | 1.55e5 | 1.47e5 | 2.07e5 | 2.37e5 | 12445 | inactive |
| RpLP1 | DRSC00783 | 48630 | 48055 | 53330 | 53075 | 3790 | inactive |
| mTor | DRSC02811 | 55815 | 73810 | 50375 | 56690 | 4975 | inactive |

6 successive records already listed, quoted:
| Target gene | dsRNA | induced reporter light, run 1, well a | induced reporter light, run 1, well b | control promoter light, run 1, well a | control promoter light, run 1, well b | uninduced reporter light, run 1, well a | outcome |
| --- | --- | --- | --- | --- | --- | --- | --- |
| ca | DRSC15306 | 1.84e5 | 1.96e5 | 2.27e5 | 2.42e5 | 16875 | inactive |
| ca | DRSC16314 | 1.47e5 | 1.36e5 | 2.09e5 | 2.22e5 | 15455 | inactive |
| CG10183 | DRSC14203 | 2.02e5 | 2.05e5 | 2.25e5 | 1.76e5 | 14040 | inactive |
| CG14062 | DRSC14725 | 1.18e5 | 1.14e5 | 1.48e5 | 1.34e5 | 10550 | inactive |
| Asph | DRSC06783 | 1.18e5 | 1.29e5 | 2.40e5 | 2.06e5 | 8392 | inactive |
| Asph | DRSC07171 | 1.32e5 | 1.15e5 | 2.60e5 | 3.03e5 | 11642 | inactive |
